The data set has as its system Flag-RBPJ (mouse). Kind of data set: EMSA. As to conditions: 1 nM DNA, little or no binding up to 200 nM RBPJ; 12 mM Hepes pH 7.9, 10 mM Tris-HCl pH 7.5, 60 mM KCl, 8% glycerol, 4 mM MgCl2, 0.02% NP40, 30 C; 5% PAGE 0.5x TBE; recombinant protein; residues 1-487; protein details: Flag; label: 32P (T4 PNK).

Chains of the proteins cited; added tags and fusions are not shown. A line that says so, or that is headed by a name, gives the form on record, which may keep a tag or linker.
Flag-RBPJ (mouse), one chain, as listed by the source: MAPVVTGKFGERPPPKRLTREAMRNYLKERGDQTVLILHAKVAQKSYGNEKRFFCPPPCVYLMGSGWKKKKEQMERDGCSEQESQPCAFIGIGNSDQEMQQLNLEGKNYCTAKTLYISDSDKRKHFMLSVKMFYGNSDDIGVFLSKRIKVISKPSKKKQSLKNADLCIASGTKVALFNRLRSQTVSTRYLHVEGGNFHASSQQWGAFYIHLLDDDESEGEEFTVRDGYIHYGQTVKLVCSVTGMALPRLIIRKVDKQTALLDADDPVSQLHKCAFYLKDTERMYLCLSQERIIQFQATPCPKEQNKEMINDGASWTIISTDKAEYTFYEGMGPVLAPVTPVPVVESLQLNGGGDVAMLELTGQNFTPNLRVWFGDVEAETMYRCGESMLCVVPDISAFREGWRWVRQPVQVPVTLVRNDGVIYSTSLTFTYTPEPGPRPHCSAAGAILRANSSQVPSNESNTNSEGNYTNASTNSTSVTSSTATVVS

No signal at the amounts used counts as a negative.

“GGCCACTAGGGGGCGC (double strand) [16 bp CTCF motif DNA]”: the binding result is recorded as “no binding”.
